Assay results: paper PMC7913777, “Allosteric effects of SSB C-terminal tail on assembly of E. coli RecOR proteins” (Nucleic Acids Research, 2021)
No constants are given. Whether binding was seen depends on the method and setting. Some results given as binding are weak or reduced against the parent protein; the word gives no strength.

Key:
E. coli RecR tetramer = target: T1, E. coli RecR tetramer (E. coli, UniProt P0A7H6 1-201); assay: AUC; sedimentation velocity, RecR (2 μM monomer) with excess RecO (4 and 6 μM) and P15 (24 and 36 μM, 6-fold over RecO), buffer BTP (pH 8.0), 25°C; both purified
T1 construct: RecR, E. coli; tetramer 87.8 kDa; Same preparation as m2; the tetrameric state, which is the one found in complexes with RecO; also called RecR4; R4; source: E. coli BL21 Rosetta 2(DE3)pLysS, purified (Ni-NTA)
T1 sequence (looked up): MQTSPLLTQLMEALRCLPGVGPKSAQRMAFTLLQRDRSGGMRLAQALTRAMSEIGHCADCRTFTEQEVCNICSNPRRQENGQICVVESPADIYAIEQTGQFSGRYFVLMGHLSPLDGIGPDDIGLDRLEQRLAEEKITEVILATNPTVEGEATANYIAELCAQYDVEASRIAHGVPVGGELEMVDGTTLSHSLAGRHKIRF

[1] = target: T2, Escherichia coli RecO protein (E. coli, UniProt P0A7H3 1-242); assay: AUC; sedimentation velocity of RecO alone, 1.5-8 μM, buffer BTP (pH 8.0), 25°C, 42 000 rpm, 230 nm; both purified
T2 chain: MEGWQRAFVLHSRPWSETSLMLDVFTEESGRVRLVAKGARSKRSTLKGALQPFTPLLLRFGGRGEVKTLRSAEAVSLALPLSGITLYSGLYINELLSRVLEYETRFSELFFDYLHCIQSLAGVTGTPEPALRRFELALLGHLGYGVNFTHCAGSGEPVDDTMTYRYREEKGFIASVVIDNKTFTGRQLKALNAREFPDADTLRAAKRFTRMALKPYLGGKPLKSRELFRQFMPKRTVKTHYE

[2] = target: T2, Escherichia coli RecO protein; assay: AUC; sedimentation equilibrium of RecO alone, 4 μM, buffer BTP (pH 8.0), 25°C, 20 000, 25 000 and 30 000 rpm; one-species model; both purified
[3] = target: T3, Escherichia coli RecR protein (E. coli) (UniProt P0A7H6); assay: condition: P15 (50 μM) titrated into RecR (8 μM monomer); ITC; blank titration: P15 (50 μM) titrated into RecR alone (8 μM monomer), buffer BTP, pH 8.0, 25°C; both purified
T3 sequence: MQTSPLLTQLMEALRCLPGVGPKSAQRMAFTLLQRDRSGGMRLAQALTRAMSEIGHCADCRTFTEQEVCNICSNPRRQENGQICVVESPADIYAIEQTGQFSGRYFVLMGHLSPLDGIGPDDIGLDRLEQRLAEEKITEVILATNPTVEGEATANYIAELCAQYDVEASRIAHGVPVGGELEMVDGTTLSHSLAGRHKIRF

B1: RecO–P15 complex (complex, E. coli)
chain: MEGWQRAFVLHSRPWSETSLMLDVFTEESGRVRLVAKGARSKRSTLKGALQPFTPLLLRFGGRGEVKTLRSAEAVSLALPLSGITLYSGLYINELLSRVLEYETRFSELFFDYLHCIQSLAGVTGTPEPALRRFELALLGHLGYGVNFTHCAGSGEPVDDTMTYRYREEKGFIASVVIDNKTFTGRQLKALNAREFPDADTLRAAKRFTRMALKPYLGGKPLKSRELFRQFMPKRTVKTHYE
peptide: PSNEPPMDFDDDIPF
notes: RecO, E. coli; as m1; the 15 C-terminal amino acids of E. coli SSB; as m3; 29.1 kDa; also called RecO in the presence of a 6-fold molar excess of P15; source: RecO from E. coli BL21(DE3)pLysS, purified; P15 bought: WatsonBio; mixed with a six-fold molar excess of P15 over RecO; copies: 1 + 1
**Q.** For B1, which binding (E. coli RecR tetramer) is on record?
**A.** binds

B2: Escherichia coli RecO protein (protein, UniProt P0A7H3 1-242)
chain: MEGWQRAFVLHSRPWSETSLMLDVFTEESGRVRLVAKGARSKRSTLKGALQPFTPLLLRFGGRGEVKTLRSAEAVSLALPLSGITLYSGLYINELLSRVLEYETRFSELFFDYLHCIQSLAGVTGTPEPALRRFELALLGHLGYGVNFTHCAGSGEPVDDTMTYRYREEKGFIASVVIDNKTFTGRQLKALNAREFPDADTLRAAKRFTRMALKPYLGGKPLKSRELFRQFMPKRTVKTHYE
**Q.** Which results are given for B2?
**A.** binding [1]: no binding (tested: 8 μM); binding [2]: no binding (tested: 4 μM)

B3: P15 peptide (the 15 C-terminal amino acids of E. coli SSB) (peptide)
peptide: PSNEPPMDFDDDIPF
notes: the 15 C-terminal amino acids of E. coli SSB; also called SSB-Ct peptide; SSB C-terminal acidic tip peptide; source: bought: WatsonBio
**Q.** How did the binding [3] turn out when B3 was run?
**A.** no binding
